Experimental data taken from paper doi:10.1101/293738.
No constants are given. Whether binding was seen depends on the method and setting. Some binding calls cover weakened binding; strength is not graded here. For some of these results: Sequences can lack the tags named with a protein.

By UniProt entry, the sequences of proteins in these tests, tags left out. Residues count along the entry.
UniProt P37894, 7-842: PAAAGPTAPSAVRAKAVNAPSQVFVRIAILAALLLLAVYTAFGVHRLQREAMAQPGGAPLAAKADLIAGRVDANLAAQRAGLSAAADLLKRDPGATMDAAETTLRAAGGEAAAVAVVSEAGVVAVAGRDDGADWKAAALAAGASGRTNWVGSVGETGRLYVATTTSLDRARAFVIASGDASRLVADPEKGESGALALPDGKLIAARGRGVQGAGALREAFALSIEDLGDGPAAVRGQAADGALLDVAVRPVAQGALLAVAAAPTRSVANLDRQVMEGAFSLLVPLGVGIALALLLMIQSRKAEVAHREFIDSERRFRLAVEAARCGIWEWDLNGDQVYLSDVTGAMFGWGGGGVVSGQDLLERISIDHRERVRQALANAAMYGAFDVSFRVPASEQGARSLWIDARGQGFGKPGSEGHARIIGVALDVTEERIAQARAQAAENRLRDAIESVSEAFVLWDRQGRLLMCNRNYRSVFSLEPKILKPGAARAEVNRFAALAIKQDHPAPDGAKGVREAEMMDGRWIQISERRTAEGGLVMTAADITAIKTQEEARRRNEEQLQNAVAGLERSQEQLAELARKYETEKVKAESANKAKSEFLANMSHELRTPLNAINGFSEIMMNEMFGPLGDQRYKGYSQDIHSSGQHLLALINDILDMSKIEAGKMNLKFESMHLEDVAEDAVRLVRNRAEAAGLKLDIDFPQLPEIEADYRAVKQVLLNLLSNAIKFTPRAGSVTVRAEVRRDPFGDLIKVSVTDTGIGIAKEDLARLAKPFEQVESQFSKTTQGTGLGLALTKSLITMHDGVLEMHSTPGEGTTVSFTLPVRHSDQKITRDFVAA
UniProt Q9RQQ9, 2-768: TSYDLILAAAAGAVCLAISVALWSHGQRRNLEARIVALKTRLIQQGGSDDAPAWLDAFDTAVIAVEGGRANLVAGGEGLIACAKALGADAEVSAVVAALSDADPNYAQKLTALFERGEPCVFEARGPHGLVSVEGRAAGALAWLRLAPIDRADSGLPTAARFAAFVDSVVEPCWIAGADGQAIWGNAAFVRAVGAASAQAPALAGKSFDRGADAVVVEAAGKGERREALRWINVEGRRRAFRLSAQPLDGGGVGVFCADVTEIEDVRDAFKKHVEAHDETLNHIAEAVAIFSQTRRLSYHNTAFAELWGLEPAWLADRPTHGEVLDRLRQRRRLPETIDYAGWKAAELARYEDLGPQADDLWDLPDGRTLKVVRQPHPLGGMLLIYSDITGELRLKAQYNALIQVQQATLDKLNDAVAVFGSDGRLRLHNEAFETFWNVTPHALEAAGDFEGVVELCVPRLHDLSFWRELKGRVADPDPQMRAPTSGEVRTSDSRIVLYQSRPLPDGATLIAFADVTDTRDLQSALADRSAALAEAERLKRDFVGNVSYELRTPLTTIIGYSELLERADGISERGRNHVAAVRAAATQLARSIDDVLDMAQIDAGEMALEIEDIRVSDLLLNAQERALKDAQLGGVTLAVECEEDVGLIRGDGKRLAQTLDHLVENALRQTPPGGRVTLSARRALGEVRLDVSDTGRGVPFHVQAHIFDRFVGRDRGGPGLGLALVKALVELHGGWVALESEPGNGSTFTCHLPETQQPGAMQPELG
UniProt P0CAW2, whole entry: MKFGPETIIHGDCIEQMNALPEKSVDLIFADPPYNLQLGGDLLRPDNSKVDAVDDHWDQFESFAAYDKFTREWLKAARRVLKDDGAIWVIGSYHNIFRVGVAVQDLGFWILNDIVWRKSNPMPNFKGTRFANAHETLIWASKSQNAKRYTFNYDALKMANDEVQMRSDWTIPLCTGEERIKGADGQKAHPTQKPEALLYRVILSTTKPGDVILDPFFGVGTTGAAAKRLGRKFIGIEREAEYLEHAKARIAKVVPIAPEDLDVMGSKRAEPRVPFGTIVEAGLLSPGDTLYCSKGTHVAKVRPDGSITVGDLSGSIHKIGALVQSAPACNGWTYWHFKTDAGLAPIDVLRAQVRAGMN

Assays:
[1] = target: T1, LonS674A held on Ni-NTA beads (LonS674A6) (Caulobacter crescentus) (UniProt P0CAW0); assay: pull-down
T1 sequence: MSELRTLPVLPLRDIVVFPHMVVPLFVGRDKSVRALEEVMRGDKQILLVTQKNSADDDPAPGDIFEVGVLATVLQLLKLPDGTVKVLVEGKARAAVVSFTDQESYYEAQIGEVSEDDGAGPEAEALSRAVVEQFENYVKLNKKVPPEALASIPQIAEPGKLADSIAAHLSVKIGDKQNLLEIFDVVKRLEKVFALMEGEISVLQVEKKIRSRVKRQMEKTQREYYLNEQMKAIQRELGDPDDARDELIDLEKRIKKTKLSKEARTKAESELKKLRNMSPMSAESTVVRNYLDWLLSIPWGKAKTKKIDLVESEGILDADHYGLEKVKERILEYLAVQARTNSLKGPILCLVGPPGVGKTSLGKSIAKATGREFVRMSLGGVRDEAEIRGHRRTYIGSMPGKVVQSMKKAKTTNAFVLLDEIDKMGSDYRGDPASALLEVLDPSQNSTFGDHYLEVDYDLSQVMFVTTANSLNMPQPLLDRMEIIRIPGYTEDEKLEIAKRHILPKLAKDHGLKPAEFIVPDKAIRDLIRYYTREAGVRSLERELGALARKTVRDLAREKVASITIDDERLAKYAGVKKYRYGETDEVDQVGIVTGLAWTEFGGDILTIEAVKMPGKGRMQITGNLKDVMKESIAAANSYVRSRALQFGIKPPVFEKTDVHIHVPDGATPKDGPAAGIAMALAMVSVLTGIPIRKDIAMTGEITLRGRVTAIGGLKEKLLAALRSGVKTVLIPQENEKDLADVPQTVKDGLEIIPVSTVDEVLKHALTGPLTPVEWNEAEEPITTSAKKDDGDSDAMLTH

[2] = target: PleC (residues 7-842) fused to T18 (Caulobacter crescentus) (UniProt P37894); assay: two-hybrid
[3] = target: T2, PodJ fused to T18 (Caulobacter crescentus) (UniProt Q9ZG88); assay: two-hybrid
T2 sequence: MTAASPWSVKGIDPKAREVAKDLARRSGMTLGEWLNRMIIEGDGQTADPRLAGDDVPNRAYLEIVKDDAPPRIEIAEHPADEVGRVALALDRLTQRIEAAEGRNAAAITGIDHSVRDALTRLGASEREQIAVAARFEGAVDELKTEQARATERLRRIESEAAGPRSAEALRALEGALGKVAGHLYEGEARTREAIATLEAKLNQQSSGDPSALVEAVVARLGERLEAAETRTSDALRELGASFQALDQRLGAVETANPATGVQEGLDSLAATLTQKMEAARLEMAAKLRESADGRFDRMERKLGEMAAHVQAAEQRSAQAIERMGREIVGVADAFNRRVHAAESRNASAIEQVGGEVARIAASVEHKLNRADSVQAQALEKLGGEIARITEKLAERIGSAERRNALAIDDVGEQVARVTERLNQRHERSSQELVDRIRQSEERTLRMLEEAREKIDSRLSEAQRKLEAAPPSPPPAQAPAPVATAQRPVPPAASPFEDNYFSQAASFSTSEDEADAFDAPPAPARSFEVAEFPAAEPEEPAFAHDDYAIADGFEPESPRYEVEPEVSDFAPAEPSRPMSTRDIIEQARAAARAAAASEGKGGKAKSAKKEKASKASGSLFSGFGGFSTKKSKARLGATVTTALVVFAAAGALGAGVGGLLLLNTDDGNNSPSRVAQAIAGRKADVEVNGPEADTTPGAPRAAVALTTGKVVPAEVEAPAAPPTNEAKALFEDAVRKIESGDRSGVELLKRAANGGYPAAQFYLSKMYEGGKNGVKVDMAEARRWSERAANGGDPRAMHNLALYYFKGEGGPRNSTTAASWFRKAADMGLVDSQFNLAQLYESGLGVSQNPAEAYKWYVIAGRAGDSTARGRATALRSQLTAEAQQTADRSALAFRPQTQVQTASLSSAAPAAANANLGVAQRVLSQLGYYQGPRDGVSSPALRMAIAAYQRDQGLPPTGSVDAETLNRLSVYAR

[4] = target: DivL (residues 2-768) fused to T18 (Caulobacter crescentus) (UniProt Q9RQQ9); assay: two-hybrid

Row | Substance | binding [1] | binding [2] | binding [3] | binding [4]
1 | CcrM DNA methyltransferase (purified recombinant) (from UniProt P0CAW2 1-358) (enzyme) | binds weakly |  |  | 
2 | CcrM fused to the T25 fragment (bacterial two-hybrid) (from UniProt P0CAW2 1-358) (enzyme) |  | no binding | no binding | no binding
